Results as given in doi:10.1101/617571.
These are yes or no findings as the source states them, for the method shown. Binding seen in cells or lysates may run through a third protein. Some entries that bind do so weakly or less than the wild type.

Amino acid sequences for entries named in this document (tags omitted).
UniProt Q8IHZ9: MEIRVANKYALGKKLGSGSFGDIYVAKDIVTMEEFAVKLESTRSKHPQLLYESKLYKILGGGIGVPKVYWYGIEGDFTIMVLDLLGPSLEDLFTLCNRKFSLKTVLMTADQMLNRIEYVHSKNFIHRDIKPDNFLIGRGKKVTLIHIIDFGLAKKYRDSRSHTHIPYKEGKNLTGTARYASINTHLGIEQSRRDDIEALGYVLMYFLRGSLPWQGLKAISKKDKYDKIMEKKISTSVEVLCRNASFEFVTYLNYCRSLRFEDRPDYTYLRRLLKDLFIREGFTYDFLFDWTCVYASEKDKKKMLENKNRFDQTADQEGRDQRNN

Molecular target: Plasmodium falciparum casein kinase 1, GFP-tagged (PfCK1-GFP) (Plasmodium falciparum (3D7)) (UniProt Q8IHZ9)
Assay: co-IP

B1: GTPase-activating protein and Vps9 domain-containing protein 1 (GAPVD1) (protein, UniProt Q14C86 1-1478)
chain: MVKLDIHTLAHHLKQERLYVNSEKQLIQRLNADVLKTAEKLYRTAWIAKQQRINLDRLIITSAEASPAECCQHAKILEDTQFVDGYKQLGFQETAYGEFLSRLRENPRLIASSLVAGEKLNQENTQSVIYTVFTSLYGNCIMQEDESYLLQVLRYLIEFELKESDNPRRLLRRGTCAFSILFKLFSEGLFSAKLFLTATLHEPIMQLLVEDEDHLETDPNKLIERFSPSQQEKLFGEKGSDRFRQKVQEMVESNEAKLVALVNKFIGYLKQNTYCFPHSLRWIVSQMYKTLSCVDRLEVGEVRAMCTDLLLACFICPAVVNPEQYGIISDAPINEVARFNLMQVGRLLQQLAMTGSEEGDPRTKSSLGKFDKSCVAAFLDVVIGGRAVETPPLSSVNLLEGLSRTVVYITYSQLITLVNFMKSVMSGDQLREDRMALDNLLANLPPAKPGKSSSLEMTPYNTPQLSPATTPANKKNRLPIATRSRSRTNMLMDLHMDHEGSSQETIQEVQPEEVLVISLGTGPQLTPGMMSENEVLNMQLSDGGQGDVPVDENKLHGKPDKTLRFSLCSDNLEGISEGPSNRSNSVSSLDLEGESVSELGAGPSGSNGVEALQLLEHEQATTQDNLDDKLRKFEIRDMMGLTDDRDISETVSETWSTDVLGSDFDPNIDEDRLQEIAGAAAENMLGSLLCLPGSGSVLLDPCTGSTISETTSEAWSVEVLPSDSEAPDLKQEERLQELESCSGLGSTSDDTDVREVSSRPSTPGLSVVSGISATSEDIPNKIEDLRSECSSDFGGKDSVTSPDMDEITHGAHQLTSPPSQSESLLAMFDPLSSHEGASAVVRPKVHYARPSHPPPDPPILEGAVGGNEARLPNFGSHVLTPAEMEAFKQRHSYPERLVRSRSSDIVSSVRRPMSDPSWNRRPGNEERELPPAAAIGATSLVAAPHSSSSSPSKDSSRGETEERKDSDDEKSDRNRPWWRKRFVSAMPKAPIPFRKKEKQEKDKDDLGPDRFSTLTDDPSPRLSAQAQVAEDILDKYRNAIKRTSPSDGAMANYESTGDNHDRDLSSKLLYHSDKEVMGDGESAHDSPRDEALQNISADDLPDSASQAAHPQDSAFSYRDAKKKLRLALCSADSVAFPVLTHSTRNGLPDHTDPEDNEIVCFLKVQIAEAINLQDKNLMAQLQETMRCVCRFDNRTCRKLLASIAEDYRKRAPYIAYLTRCRQGLQTTQAHLERLLQRVLRDKEVANRYFTTVCVRLLLESKEKKIREFIQDFQKLTAADDKTAQVEDFLQFLYGAMAQDVIWQNASEEQLQDAQLAIERSVMNRIFKLAFYPNQDGDILRDQVLHEHIQRLSKVVTANHRALQIPEVYLREAPWPSAQSEIRTISAYKTPRDKVQCILRMCSTIMNLLSLANEDSVPGADDFVPVLVFVLIKANPPCLLSTVQYISSFYASCLSGEESYWWMQFTAAVEFIKTIDDRK
B1 was tested, and the binding was “binds”.

B2: Sorting nexin 22 (SNX22) (protein, UniProt Q96L94 1-193)
chain: MLEVHIPSVGPEAEGPRQSPEKSHMVFRVEVLCSGRRHTVPRRYSEFHALHKRIKKLYKVPDFPSKRLPNWRTRGLEQRRQGLEAYIQGILYLNQEVPKELLEFLRLRHFPTDPKASNWGTLREFLPGDSSSQQHQRPVLSFHVDPYVCNPSPESLPNVVVNGVLQGLYSFSISPDKAQPKAACHPAPLPPMP
With B2 the binding was “binds”.
